Library screen at single concentrations

The values are deposited in ChEMBL (CHEMBL3988442, “University of Dundee, Small-Polar-MMV Screening Library” (2021)).

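Phenotypic screen: M. tuberculosis growth, glucose 7H9 medium, 3 days; the read-out is not stated. Tested at 50 µM. Higher reads as more growth inhibition (inferred: compounds with an IC50 in retests scored well above the rest). About 69,000 compounds were tested under these conditions; 1.1% (about 760) showed 50% or more at least once.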

The filed quantity is “Percent Effect” (%).
The controls that fix the scale are not given in the record; negative values are as filed.
Compounds were drawn at random from those tested, without regard to their results.
Two or more numbers in one place are separate tests of the same structure; such repeats can differ widely.

SMILES | percent effect
CCCn1ncnc1C(C)NC(=O)CC1CCN(C(C)C)CC1 (centres undefined) | -12.58% & 0.8929%
Cc1csc(C2CCCN(C(=O)c3cnc4n[nH]c(C)c4c3)C2)n1 (centres undefined) | 29.66%
O=C(NCC(Cc1cccc(F)c1)N1CCCC1=O)c1cnccn1 (centres undefined) | -1.477% & -35.1%
CC(=O)Nc1ccc(Cl)c(C(=O)N(C)C(C)c2ccon2)c1 (centres undefined) | -13.05%
Cc1ncc(C)c(N2CCC(Cc3ccc(Cl)cc3)(C(=O)O)CC2)n1 | 3.358%
Cc1nc(Cn2nc(C3CCNCC3)n(Cc3ccccc3)c2=O)no1 | -30.16%
CC(C)Oc1ncccc1CNC(=O)Nc1ccccn1 | 4.625%
CN(C(=O)CC1=CCCCC1)C1CCCN(C2Cc3ccccc3C2)C1 (centres undefined) | 65.74%
O=c1n(CCn2cccc2)nc(C2CCNCC2)n1Cc1ccccc1 | 18.77%
Cn1cnc2c1C(COCC1CCOCC1)CN(Cc1ccccn1)C2.O=C(O)C(F)(F)F.O=C(O)C(F)(F)F.O=C(O)C(F)(F)F (centres undefined) | 1.764%
CC(=O)N1CCN(C(=O)CNc2ccc3sccc3c2)CC1 | 1.4%
Cc1ccc(C(=O)N2CCCC(CNS(=O)(=O)C(C)C)C2)cc1 (centres undefined) | -11.55%
Cc1cccn2c(=O)cc(CN3CCCC3Cn3cncn3)nc12 (centres undefined) | -7.471% & -0.3488%
[H][C@@]12CS(=O)(=O)C[C@]1([H])N(Cc1ccc(CC)cc1)CCN2C(=O)C(C)C | -10.02%
Cc1cc(N2CCc3cncnc3C2)n2nc(C(F)(F)F)nc2n1 | -15.17%
CC(C)CC(=O)N1CCC(Nc2nc(O)cc(-c3ccsc3)n2)CC1 | -24.77%
Cc1ccc(C(=O)N2CCC3(CC2)CC(c2ccccc2)C(=O)N3)o1 (centres undefined) | 6.14% & 21.48%
CC(Cn1cccn1)NCc1nc(-c2ccccc2Cl)no1 (centres undefined) | 26.69%
O=C(c1ccco1)N1CCN(Cc2nc(C3CC3)no2)CC1 | 41.21%
COc1ccc(F)c(CN2CCCC(c3cc(O)nc(C)n3)C2)c1 (centres undefined) | 12.48%
CCc1ncc2c(n1)CN(CC1CCCCO1)CC2 (centres undefined) | -24.22%
COc1cccc(C(C(=O)O)N2CCC(Cn3cccn3)CC2)c1OC (centres undefined) | -5.457%
CC(=O)Nc1nc(C(=O)Nc2ccc(F)cc2)cs1 | 14.16%
CC1CCCCN1C(=O)Cn1cnc(C#N)n1 (centres undefined) | -31.9% & 8.05%
CCc1nc(C)c(C(=O)NCCNc2ncccc2C#N)s1 | 36.55%
Cc1ccc(CCNC(=O)Nc2cc(C(F)(F)F)c[nH]c2=O)o1 | 9.657%
Cc1ccc(C#N)c(N2CCC(c3nccn3CCN(C)C)CC2)n1 | 7.887%
Cc1cc(C)n(CC2CN(CCOc3cccc(C#N)c3)CCO2)n1 (centres undefined) | 6.877%
O=C(c1cn(Cc2ccccc2)c2ncccc12)N1CCOCC1 | 2.912%
COc1ncnc(N)c1CNCc1ccccc1-n1cccn1 | 1.927%
CN(C)CC1(O)CCN(C(=O)c2ccc(-n3cnnc3)cc2Cl)C1 (centres undefined) | -21.37%
CC(C)Nc1ncnc2c1CCN(C(=O)[C@H]1CCCO1)CC2 | -16.91%
CC(C)c1nnc2n1CC(CNc1cnc3ccccc3n1)CC2 (centres undefined) | -11.12%
C[C@@H]1CN(C(=O)c2ccc(C#N)nc2)CC[C@@]1(O)C1CCOCC1 | 21.8%
CC(=O)N1CCC2(CC1)COCCN2CCN(C)C.O=C(O)C(F)(F)F.O=C(O)C(F)(F)F | -14.79%
CNC(=O)C1CCCN(C(=O)NCCC2Cc3ccccc3C2)C1 (centres undefined) | 6.966% & -7.355%
COc1cc2c(cc1-c1nc3c(cnn3C(C)C(C)C)[nH]1)OCO2 (centres undefined) | 27.6%
CNc1cccc(C2CCCN(C(=O)c3ccncc3)C2)n1 (centres undefined) | 1.124%
Cc1ccc(CNCCS(=O)(=O)N2CCOCC2)cc1C | -23.5%
CC(=O)c1ccccc1-c1nc(CC2CCN(C)CC2)no1 | -30.79%
CCc1noc(CN(CC)Cc2cc3cc(C)ccc3[nH]c2=O)n1 | 18.63%
CC(CC#N)N1CCN(C(=O)OC(C)(C)C)CC1 (centres undefined) | -4.926% & -1.389%
Cc1ccc(Br)cc1NC(=O)NCC(O)CO (centres undefined) | 19.54%
Cc1[nH]ncc1C(=O)N(CC(C)C)CC(O)c1ccc(F)cc1 (centres undefined) | -81.57%
CC(=O)N1CCCN(C(=O)NCCCNS(C)(=O)=O)CC1 | -43.06%
COC(=O)C1(NCC(=O)Nc2cc(C)ccc2OC)CCCCC1 | 36.26%
O=S(=O)(c1cccnc1)N1CCN(CCn2ccnc2)CC1 | -1.466% & 1.606%
CC(=O)Nc1cccc2c1ccn2CC(=O)Nc1ncc[nH]1 | 19.09%
CCc1nc(CN2CCCC(N(C)CCc3cccs3)C2)no1 (centres undefined) | -27.41%
CC1CCN(C)c2ccccc2N1C(=O)c1ccc(=O)n(C)n1 (centres undefined) | 5.966%
CN1CCN(C(=O)C2CCN(c3cccnn3)CC2)CC1 | -30.3%
Cc1cnn(C(C)C2CC2)c1NC(=O)c1cnccn1 (centres undefined) | -0.5305%
Cc1ccc(OCC(=O)NCC(F)(F)F)nc1 | -0.8076%
CC(C)CC(=O)NCC(O)c1c(F)cccc1F (centres undefined) | -8.986%
O=C(N[C@H]1COC[C@@H]1N1CCCC1)c1csc(Cc2ccccc2)n1 | 21.9%
COc1ccc(C)cc1CNCc1ccc(-n2nc(C)cc2C)nc1 | -25.38%
O=C(c1ccc[nH]1)N1CCN(CC2CCOc3ccccc3C2)CC1 (centres undefined) | -14.72% & -13.22%
Cc1ccccc1CC(=O)NCCNc1nccc(C(F)(F)F)n1 | 18.88%
NC(=O)CN(C(=O)Cc1ccc(C(F)(F)F)cc1)C1CCCC1 | -12.04%
CN1CCCC2(CCN(C(=O)Cc3cc4c(cc3Cl)OCCO4)C2)C1=O (centres undefined) | 8.242% & -0.1699%
CC1(C)CNC(=O)c2nc(CCN3CCC(O)CC3)[nH]c2C1 | -22.19%
CCC(C)(CC(=O)OC)NCc1noc(C)n1 (centres undefined) | 10.22% & -13.38%
COc1cc(NCCNC(=O)c2ccc3[nH]ccc3c2)cc(OC)c1 | 10.61% & 3.752%
Cc1noc(C)c1-c1nc(C2CCCN(CCC(N)=O)C2)ccc1CO (centres undefined) | -8.674%
COc1ccc(C(=O)NCCCNc2ccc(C(F)(F)F)cn2)cc1 | 31.34%
O=C(Nc1cnn(Cc2ccccc2)c1)N1CCN(CCO)CC1 | 30.37% & 3.598%
CCOCCN1CCN(CC(=O)N2CCCC2)CC1CC (centres undefined) | -16.27%
Cc1nc(CN2CCC3(CC2)NC(=O)CC3c2cccnc2)cs1 (centres undefined) | -3.695%
Cc1nn(C)c(Oc2cccnc2)c1NC(=O)C1CCCO1 (centres undefined) | -22.25%
CC(C)N1CCN(C(=O)Cc2csc(-c3ccco3)n2)CC1 | 9.561%
CN1CCC(N(C)C(=O)c2cnc3c(cnn3C3CCCC3)c2)CC1 | 4.151% & -7.339%

The first 9 entries again:

{"smiles": "CCCn1ncnc1C(C)NC(=O)CC1CCN(C(C)C)CC1", "stereo": "centres undefined", "percent effect": "-12.58 & 0.8929"}
{"smiles": "Cc1csc(C2CCCN(C(=O)c3cnc4n[nH]c(C)c4c3)C2)n1", "stereo": "centres undefined", "percent effect": 29.66}
{"smiles": "O=C(NCC(Cc1cccc(F)c1)N1CCCC1=O)c1cnccn1", "stereo": "centres undefined", "percent effect": "-1.477 & -35.1"}
{"smiles": "CC(=O)Nc1ccc(Cl)c(C(=O)N(C)C(C)c2ccon2)c1", "stereo": "centres undefined", "percent effect": -13.05}
{"smiles": "Cc1ncc(C)c(N2CCC(Cc3ccc(Cl)cc3)(C(=O)O)CC2)n1", "percent effect": 3.358}
{"smiles": "Cc1nc(Cn2nc(C3CCNCC3)n(Cc3ccccc3)c2=O)no1", "percent effect": -30.16}
{"smiles": "CC(C)Oc1ncccc1CNC(=O)Nc1ccccn1", "percent effect": 4.625}
{"smiles": "CN(C(=O)CC1=CCCCC1)C1CCCN(C2Cc3ccccc3C2)C1", "stereo": "centres undefined", "percent effect": 65.74}
{"smiles": "O=c1n(CCn2cccc2)nc(C2CCNCC2)n1Cc1ccccc1", "percent effect": 18.77}